Results taken from the supplement of paper PMC10689618.
Structures can show the parent of a compound that is named as a salt. This is one part of the list. Many values rest on one well or one pass, so single values are uncertain.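 Labelled rat cortical synaptosomes were engulfed by primary human fetal astrocytes. Engulfment equaled a red/green ratio, corrected for calcein live-cell signal and normalized to the plate median. Compounds were toxic when calcein dropped over 30%, and reduced phagocytosis when below 70% of the median above 5 µM.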

Legend:
Human fetal astrocytes [1] = assay: loss of total cells relative to no-compound high-control median (toxicity); higher = more toxic (fewer cells); details: 24 h
Human fetal astrocytes [2] = assay: synaptosome phagocytosis (pHrodo/calcein intensity ratio) relative to plate median of data wells; higher = more phagocytosis; details: 24 h

Row | SMILES | loss of total cells (Human fetal astrocytes [1]; 1.39 µM) | loss of total cells (Human fetal astrocytes [1]; 2.78 µM) | loss of total cells (Human fetal astrocytes [1]; 5.56 µM) | loss of total cells (Human fetal astrocytes [1]; 11.11 µM) | loss of total cells (Human fetal astrocytes [1]; 22.22 µM) | synaptosome phagocytosis (Human fetal astrocytes [2]; 1.39 µM) | synaptosome phagocytosis (Human fetal astrocytes [2]; 2.78 µM) | synaptosome phagocytosis (Human fetal astrocytes [2]; 5.56 µM) | synaptosome phagocytosis (Human fetal astrocytes [2]; 11.11 µM) | synaptosome phagocytosis (Human fetal astrocytes [2]; 22.22 µM)
1 | COc1cc2c3cc1Oc1cc(ccc1O)C[C@@H]1c4c(cc(OC)c(O)c4Oc4ccc(cc4)C[C@@H]3N(C)CC2)CC[N+]1(C)C | 25% | -1.3% | -7.6% | 34.2% | -7.8% | 100% | 72.7% | 57% | 131% | 97.3%
2 | Cc1cn[nH]c1 [4-Methylpyrazole hydrochloride] | 12.1% | -33.3% | 18% | -11.5% | 5.9% | 133% | 103% | 133% | 72.6% | 76.8%
3 | N=C(N)N | 19.1% | 4.7% | 0.7% | 2.9% | 1.5% | 122% | 106% | 98.5% | 96.6% | 139%
4 | Cn1nnnc1SCC1=C(C(=O)O)N2C(=O)[C@@H](NC(=O)[C@H](OC=O)c3ccccc3)[C@H]2SC1 | 23.4% | -18.3% | 4.3% | -1% | 7.2% | 142% | 109% | 77% | 72.2% | 107%
5 | CC(=O)Oc1ccccc1C(=O)Oc1ccccc1C(=O)O | -13.9% | -12.6% | -3.7% | 22.3% | 6.7% | 117% | 105% | 118% | 148% | 75.7%
6 | CN(C)CCOC(=O)C(c1ccccc1)C1(O)CCCC1 (stereo not given) | -13.4% | -24.7% | -43.2% | -16.4% | 22.2% | 102% | 108% | 100% | 83% | 110%
7 | CCCSc1ccc2[nH]c(NC(=O)OC)nc2c1 | -36.3% | 5.6% | 8.7% | 36.4% | -1.6% | 68.1% | 122% | 101% | 102% | 112%
8 | CCCc1nc(C)c2c(O)nc(-c3cc(S(=O)(=O)N4CCN(CC)CC4)ccc3OCC)nn12 | 0.8% | -18.6% | 14.7% | 10.9% | 0.6% | 82.3% | 93.6% | 108% | 66.2% | 96.3%
9 | c1ccc(C2CN3CCSC3=N2)cc1 (stereo not given) [Tetramisole hydrochloride] | -24.2% | -14.3% | -6.2% | 33.1% | 5.9% | 75.8% | 78.4% | 107% | 130% | 90.4%
10 | CC(=O)O[C@H]1CC[C@]2(C)C3=CC(=O)[C@@]4(C)C(C[C@@H]5OC6(OCC(C)CC6Br)[C@@H](C)[C@@H]54)C3CC[C@H]2C1 (stereo partly drawn) [3beta-ACETOXY-23-BROMO-ISOALLOSPIROST-9 (11)-ENE-12-ONE] | -17% | -0.7% | 29% | 38.7% | -15.9% | 86.6% | 115% | 131% | 111% | 108%
11 | C[C@H]1[C@H]2CC[C@H]3[C@@H]4CC=C5C[C@@H](N(C)C)CC[C@]5(C)[C@H]4CC[C@]23CN1C | -31.1% | -9.7% | -2.9% | -8.1% | 3.7% | 80.6% | 77.5% | 71.6% | 83.7% | 64.8%
12 | CCN(CCO)CCCC(C)Nc1ccnc2cc(Cl)ccc12 (stereo not given) | -10.8% | -20.4% | 0.9% | -7% | 22.1% | 105% | 80.2% | 106% | 107% | 103%
13 | CCC1(C)OC(=O)N(C)C1=O (stereo not given) | -24.1% | -24.7% | -7.5% | -22.7% | -0.6% | 110% | 107% | 112% | 120% | 94.4%
14 | CC1(C)O[C@@H]2C[C@H]3[C@@H]4C[C@H](F)C5=CC(=O)C=C[C@]5(C)[C@@]4(F)[C@@H](O)C[C@]3(C)[C@]2(C(=O)CO)O1 | -5.6% | -39% | -7% | 6.1% | 4.6% | 112% | 72.6% | 108% | 132% | 133%
15 | O=c1c(O)c(-c2ccc(O)c(O)c2)oc2cc(O)ccc12 | -13.9% | -20.6% | 19% | 16.2% | 14.8% | 109% | 46.2% | 124% | 70.9% | 99.3%
16 | COC(=O)C[C@H]1C(C)(C)C(=O)[C@@H]2CC3=C(CC[C@]4(C)C3=CC(=O)O[C@H]4c3ccoc3)[C@@]1(C)C2=O | -4% | -1.3% | 36.6% | -3.2% | 5.6% | 120% | 86.5% | 120% | 108% | 123%
17 | C[C@H]1COc2c(N3CCN(C)CC3)c(F)cc3c(=O)c(C(=O)O)cn1c23 | 17.7% | -30.2% | 13% | -4.3% | 12.1% | 141% | 98.9% | 115% | 88.5% | 105%
18 | CC(C)/C(O)=C1/C(=O)O[C@@H](c2ccoc2)[C@]2(C)C(O)[C@@H](O)[C@@]34OC5(C)OC67CC(C)(C(O)[C@]6(O)[C@@H](O)[C@]3(O5)C12)[C@H](CC(=O)O)[C@]74C (stereo not given in full) | 6.2% | -6% | 44.3% | -0.6% | 14.4% | 99.5% | 94.7% | 124% | 77% | 135%
19 | C=CCCCCCCCCC(=O)[O-].C=CCCCCCCCCC(=O)[O-].[Zn+2] | -24.2% | -26.2% | -12.4% | -1.6% | -6.5% | 119% | 85.9% | 110% | 91.7% | 128%
20 | COc1cc(Cc2cnc(N)nc2N)cc(OC)c1OC [Trimethoprim] | 5% | -15.9% | -23% | 0.3% | 31.9% | 106% | 89.8% | 153% | 104% | 102%

Quoted at random: two entries already listed, in no set order.
Row | SMILES | loss of total cells (Human fetal astrocytes [1]; 1.39 µM) | loss of total cells (Human fetal astrocytes [1]; 2.78 µM) | loss of total cells (Human fetal astrocytes [1]; 5.56 µM) | loss of total cells (Human fetal astrocytes [1]; 11.11 µM) | loss of total cells (Human fetal astrocytes [1]; 22.22 µM) | synaptosome phagocytosis (Human fetal astrocytes [2]; 1.39 µM) | synaptosome phagocytosis (Human fetal astrocytes [2]; 2.78 µM) | synaptosome phagocytosis (Human fetal astrocytes [2]; 5.56 µM) | synaptosome phagocytosis (Human fetal astrocytes [2]; 11.11 µM) | synaptosome phagocytosis (Human fetal astrocytes [2]; 22.22 µM)
2 | Cc1cn[nH]c1 [4-Methylpyrazole hydrochloride] | 12.1% | -33.3% | 18% | -11.5% | 5.9% | 133% | 103% | 133% | 72.6% | 76.8%
3 | N=C(N)N | 19.1% | 4.7% | 0.7% | 2.9% | 1.5% | 122% | 106% | 98.5% | 96.6% | 139%
